Reference: PubChem BioAssay AID1159578 (Peter MacCallum Cancer Centre, 2015)

Purpose: 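Knock-downs that alter how fast lymphatic endothelial cells migrate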 (primary screen)
Cells: human lymphatic endothelial cells
Reagent: siRNA pool against human genes, 40 nM
Timing: 48 h after transfection
Measured: 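Cells stained with dye and imaged after a scratch; covered wound area and nuclei counted, duplicates averaged, migration set against mock wells and turned into a robust z-score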
Scale: migration robust z-score: higher = faster migration into the scratch; nuclei per well: higher = more cells in the well
Rule for the call: 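Pools averaging fewer than 3300 nuclei are never called; remaining pools count as changed when migration robust z lies outside -2 to 2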
Meaning of the calls: active = migration changed; inactive = no migration change, or too few cells
The deposit covers about 18,000 reagents; below is a part drawn at random. Over the whole deposit, about 1,030 (5.7%) got an active call. 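Inactive calls also include pools with fewer than 3300 nuclei, whose migration was not assessed.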 The raw values are shown without normalisation. Entries without a mark were called inactive. Not all columns of the deposit are shown.

SMUG1
- migration robust z-score: -0.7
- nuclei per well, duplicate mean: 5736

LYSMD3
- migration robust z-score: -2.9
- nuclei per well, duplicate mean: 2936

C14orf184 (retired record)
- migration robust z-score: -1.74
- nuclei per well, duplicate mean: 6094

PRKACA
- migration robust z-score: -0.62
- nuclei per well, duplicate mean: 6418

ORAI2
- migration robust z-score: -0.07
- nuclei per well, duplicate mean: 7183

TNP1
- migration robust z-score: 1.6
- nuclei per well, duplicate mean: 7485

TATDN1
- migration robust z-score: 0.73
- nuclei per well, duplicate mean: 5192

Targets listed so far whose target name starts with T or t (2):
TNP1
- migration robust z-score: 1.6
- nuclei per well, duplicate mean: 7485

TATDN1
- migration robust z-score: 0.73
- nuclei per well, duplicate mean: 5192

Additional reagents follow:
GIPC3
- migration robust z-score: -0.22
- nuclei per well, duplicate mean: 5739

C1orf52
- migration robust z-score: -1.58
- nuclei per well, duplicate mean: 5984

DCAF4L2
- migration robust z-score: 0.57
- nuclei per well, duplicate mean: 6178

PTOV1
- migration robust z-score: -0.09
- nuclei per well, duplicate mean: 5984

CASP4
- migration robust z-score: -1.25
- nuclei per well, duplicate mean: 5870

SSTR2
- migration robust z-score: 1.29
- nuclei per well, duplicate mean: 5448

GSDMC
- migration robust z-score: 0.16
- nuclei per well, duplicate mean: 6100
